From PubChem BioAssay AID504847 (National Center for Advancing Translational Sciences (NCATS), 2011)
Hit rate of the full screen: of about 400,000 compounds, about 3,700 (0.93%) were called active. Inconclusive results, whose numbers are uncertain, are shown with a selection of clear calls. Calls come from the whole dose curve; as a rule, active = well fitted inhibition curve with a large enough effect; inconclusive = small, poorly fitted or top-dose-only effect, or another doubt; inactive = no such curve, though single readings can be large or run the other way. Potencies of inconclusive entries are doubtful fits and often do not repeat.

The chains behind the UniProt entries cited, without tags or fusion partners.
UniProt P11473, whole entry, looked up: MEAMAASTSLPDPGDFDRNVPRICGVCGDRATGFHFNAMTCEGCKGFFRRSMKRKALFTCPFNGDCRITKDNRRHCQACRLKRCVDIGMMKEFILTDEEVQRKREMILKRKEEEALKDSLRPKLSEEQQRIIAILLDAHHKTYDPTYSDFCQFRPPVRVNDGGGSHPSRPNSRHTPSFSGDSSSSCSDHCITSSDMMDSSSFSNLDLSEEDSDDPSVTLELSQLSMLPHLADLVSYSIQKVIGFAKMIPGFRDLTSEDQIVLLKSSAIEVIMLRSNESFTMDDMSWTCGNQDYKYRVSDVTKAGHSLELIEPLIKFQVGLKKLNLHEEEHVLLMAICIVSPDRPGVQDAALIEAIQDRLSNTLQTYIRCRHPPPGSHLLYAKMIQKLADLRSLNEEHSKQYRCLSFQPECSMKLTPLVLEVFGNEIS

Molecular target: Vitamin D3 receptor (Homo sapiens) (UniProt P11473)
Test: Inhibitors of the vitamin D receptor (VDR): qHTS
Conditions: VDR-SRC2-3 peptide fluorescence polarization, 2 h; max response, negative = inhibition: stronger effect = lower value
Procedure, shortened: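 Signal is fluorescence polarization, reporting how far test compounds block the interaction of VDR with the SRC2-3 coregulator peptide after a 2 h room-temperature incubation.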
% is set by controls: 0 for no effect and ±100 for the full control effect; potency is the fitted concentration of half-maximal effect.

Row | Compound | max response, negative = inhibition | Potency
1 | Cc1ccc(CCNC(=O)CCSCc2ccccc2F)cc1 | inactive: 13.7% | 
2 | COC(=O)C1=C(CSc2nc3c(cc2C#N)CN(C)CC3)OC(N)=C(C#N)C1c1ccccc1F (stereo not given) | inactive: 9.59% | 
3 | COc1ccc(Oc2ccc(-c3ccn[nH]3)cc2)cc1 | inactive: -1.62% | 
4 | Nc1ccc2[nH]c(=S)sc2c1 |  | active: 28.2 µM
5 | O=C1/C(=C/c2ccncc2)SC(=S)N1Cc1ccccc1 |  | active: 70.8 µM
6 | CCN(CC)CCOc1ccc(C(O)(Cc2ccc(Cl)cc2)c2ccc(C)cc2)cc1 (stereo not given) |  | inconclusive: 89.1 µM [inhibitor, single point]
7 | CC(=O)N/N=C(\C)c1cccc(C(F)(F)F)c1 | inactive: 8.96% | 
8 | NC(=S)NNc1ccc(Cl)c(Cl)c1 |  | inconclusive: 89.1 µM [inhibitor, partial curve, poor fit]
9 | COC(=O)CCCCCCCCC(O)CN(C)C (stereo not given) |  | inconclusive: 14.1 µM [inhibitor, single point]
10 | O=C(Cn1c(=O)oc2cc(S(=O)(=O)NCc3ccccc3)ccc21)NCc1ccc(F)cc1 | inactive: -0.819% | 
11 | N#Cc1ccc(CS(=O)(=O)c2nc3ccccc3s2)cc1 |  | inconclusive: 39.8 µM [inhibitor, full curve]
12 | CC1CCCN(S(=O)(=O)c2cccc(C(=O)NCC3CCCO3)c2)C1 (stereo not given) |  | inconclusive: 79.4 µM [inhibitor, single point]
13 | CCC1(c2ccc(Cl)cc2)NC(=S)N(c2ccc(C)cc2)N1 (stereo not given) |  | active: 79.4 µM
14 | CNc1ccc(/C=C2\CSc3ccccc3C2=O)cc1[N+](=O)[O-] |  | inconclusive: 17.8 µM [inhibitor, full curve, poor fit]
15 | CCN(C(=O)COC(=O)CSc1ccc([N+](=O)[O-])cc1)C1CCS(=O)(=O)C1 (stereo not given) |  | inconclusive: 89.1 µM [inhibitor, single point]
16 | COc1ccccc1CNC(=O)c1nn(-c2ccc(C)cc2)c(=O)c2c1c1ccccc1n2C |  | inconclusive: 25.1 µM [inhibitor, partial curve, poor fit]
17 | Cc1cccc(CSc2ncc(Cl)c(C(=O)Nc3sc4c(c3C#N)CCCC4)n2)c1 | inactive: 6.99% | 
18 | CCOC(=O)c1oc2ccccc2c1NC(=O)CCl |  | inconclusive: 79.4 µM [inhibitor, partial curve, poor fit]
19 | Cc1ccc(-n2ccnc(SCC(=O)NCCc3ccccc3)c2=O)cc1F |  | inconclusive: 7.94 µM [inhibitor, full curve]
20 | O=C(c1c(F)c(F)c(F)c(F)c1F)N1CCc2ccccc21 |  | inconclusive: 56.2 µM [inhibitor, partial curve, poor fit]
21 | CCN(CCn1cccn1)C(=O)CC1C(=O)NCCN1Cc1ccc(F)cc1 (stereo not given) |  | inconclusive: 89.1 µM [inhibitor, single point]
22 | CCc1c(O)cc(=O)n(-c2ccccc2)c1-c1ccccc1 |  | inconclusive: 89.1 µM [inhibitor, single point]
23 | CCc1nc(Nc2cccc(O)c2)c2oc3ccccc3c2n1 |  | inconclusive: 89.1 µM [inhibitor, single point]
24 | CCOc1cc(Br)cc(C(c2c(C(=O)O)[nH]c3ccccc23)c2c(C(=O)O)[nH]c3ccccc23)c1O |  | inconclusive: 56.2 µM [inhibitor, partial curve, poor fit]

Row | Compound | max response, negative = inhibition | Potency
25 | O=c1[nH]c(=S)[nH]c(-c2ccccc2)c1Cc1c(O)ccc2ccccc12 |  | active: 22.4 µM
26 | CC(O)CCC(=O)NCCNC(=O)CCC(C)O (stereo not given) |  | inconclusive: 20 µM [inhibitor, partial curve]
27 | C/C(CC(C)(C)c1ccccc1)=N\NS(=O)(=O)c1ccccc1 |  | inconclusive: 70.8 µM [inhibitor, partial curve, poor fit]
28 | CC(=O)c1cccc(OCC(O)CN2CCN(C(=O)c3ccco3)CC2)c1 (stereo not given) | inactive: -2.38% | 
29 | COc1cccc(Cn2c(=O)c(-c3ccccc3)nc3cnc(N4CCNCC4)nc32)c1 |  | inconclusive: 79.4 µM [inhibitor, single point]
30 | COc1cccc(-c2cc(C(F)(F)F)c(C#N)c(=O)[nH]2)c1 |  | active: 70.8 µM
31 | COC(=O)c1scc(C)c1NC(=O)c1ccccc1F | inactive: 4.02% | 
32 | O=S(=O)(c1ccc(Cl)c(Cl)c1)c1snnc1-c1ccccc1 |  | inconclusive: 79.4 µM [inhibitor, partial curve]
33 | CC(C)(C)CNC(=O)c1cccc2c1C(=O)c1ccc(N3CCCC3)cc1S2(=O)=O | inactive: 2.73% | 
34 | Nc1ccc(SC(F)(F)F)cc1 | inactive: 7.77% | 
35 | Cc1cccc(C)c1NC(=O)CCc1nnc2ccc(N3CCCC3)nn12 |  | inconclusive: 14.1 µM [inhibitor, partial curve, poor fit]
36 | C(=Nc1ccc(N2CCOCC2)cc1)c1c[nH]c2ccccc12 |  | inconclusive: 89.1 µM [inhibitor, single point]
37 | NC(=O)COc1ccc(C(=O)/C=C2/C(=O)Nc3ccccc32)cc1 |  | inconclusive: 10 µM [inhibitor, full curve]
38 | CCc1nn(CC(=O)NCCCN2CCOCC2)c(=O)c2cc3cc(F)ccc3n12 | inactive: -13.3% | 
39 | Cc1ccccc1CSc1nnc(-c2ccco2)n1Cc1ccco1 | inactive: -13.4% | 
40 | Cn1cnc(C(=O)N2CCc3ccccc3C2)c1C(=O)N1CCc2ccccc2C1 | inactive: -17.3% | 
41 | Cc1ccc(CNC(=O)COCc2cc(-c3ccc4c(c3)OCO4)on2)cc1 | inactive: 4.82% | 
42 | Cc1noc(C)c1-c1cncnc1NCc1ccccc1 |  | inconclusive: 89.1 µM [inhibitor, single point]
43 | CCOC(=O)C1=C(C)Nc2ccccc2N=C1NC(=O)c1oc2ccccc2c1COC |  | inconclusive: 28.2 µM [inhibitor, partial curve]
44 | CC1CCCCN1C(=O)CSc1nc2ccccc2nc1Cc1ccc(Cl)cc1 (stereo not given) | inactive: 4.96% | 
45 | CC(NC(=O)Cc1cc(F)cc(F)c1)C(=O)NC(C(=O)OC(C)(C)C)c1ccccc1 (stereo not given) | inactive: -10.1% | 
46 | Cc1cc(Cl)ccc1NC(=O)c1cc2ccccn2n1 | inactive: -0.238% | 
47 | CCN(CC(=O)Nc1ccc(NC(C)=O)cc1)Cc1c(O)ccc2cc(Br)ccc12 |  | inconclusive: 50.1 µM [inhibitor, partial curve, poor fit]
48 | CC(C)CCNC(=O)c1cn(C)c2ccc(S(=O)(=O)N3CCOCC3)cc2c1=O | inactive: 9.2% | 

Row | Compound | max response, negative = inhibition | Potency
49 | CCCCOC(=O)Sc1nc2ccccc2o1 |  | inconclusive: 44.7 µM [inhibitor, partial curve]
50 | CCN(CC)c1ccc(S(=O)(=O)N2CCOCC2)cc1NC(=O)c1cc(=O)c2ccccc2o1 | inactive: -1.3% | 
51 | Cc1ccccc1NC(=O)CSc1nnc(-c2ccco2)c(-c2ccco2)n1 |  | inconclusive: 89.1 µM [inhibitor, partial curve, poor fit]
52 | CCc1nnc(NC(=O)CN2CC(C)OC(C)C2)s1 (stereo not given) | inactive: -3.03% | 
53 | COc1ccccc1C1C2=C(CC(C)(C)CC2=O)Nc2nnnn21 (stereo not given) | inactive: -11.9% | 
54 | CC(=O)C1=C(C)OC2(O)c3ccccc3C(=O)C12O (stereo not given) |  | active: 1.58 µM
55 | COc1ccc(C(=O)N/C(=C\c2cn(C)c3ccccc23)C(=O)N2CCN(C)CC2)cc1OC |  | inconclusive: 8.91 µM [inhibitor, partial curve]
56 | COc1ccc(/C=C2\C(=O)N(c3c(Cl)cc(Cl)cc3Cl)N=C2NC(=O)c2cccc([N+](=O)[O-])c2)cc1 |  | inconclusive: 50.1 µM [inhibitor, partial curve, poor fit]
57 | NC(Cc1cc(I)c(Oc2cc(I)c(O)c(I)c2)c(I)c1)C(=O)O (stereo not given) |  | inconclusive: 50.1 µM [inhibitor, partial curve, poor fit]
58 | Cc1cc(NC2=CC(=O)C(=O)c3ccccc32)no1 |  | inconclusive: 89.1 µM [inhibitor, partial curve, poor fit]
59 | CC[C@H](C)[C@H](NC(=O)OCc1ccccc1)C(=O)OCC(=O)Nc1ccc(N2CCOCC2)cc1 |  | inconclusive: 89.1 µM [inhibitor, partial curve, poor fit]
60 | COCC(=O)NNS(=O)(=O)c1ccccc1[N+](=O)[O-] | inactive: 5.22% | 
61 | Cc1ccc(/C(O)=C2/C(=O)C(=O)OC2c2ccc(Cl)cc2)cc1 (stereo not given) |  | inconclusive: 15.8 µM [inhibitor, full curve, poor fit]
62 | COc1ccc(C(=O)N/C(=C/c2cccc3ccccc23)C(=O)NCCc2c[nH]c3ccccc23)cc1OC | inactive: -17% | 
63 | Cc1ccc(Cl)cc1NC(=O)C(=O)N/N=C/c1ccc2c(c1)OCO2 |  | inconclusive: 89.1 µM [inhibitor, single point]
64 | Cc1ccc(-c2cc(C(F)(F)F)n3nc(C(=O)Nc4ccon4)cc3n2)cc1C |  | active: 89.1 µM
65 | COC(=O)c1cc2sc(C)cc2n1CC(=O)Nc1ccc(C)cc1Cl | inactive: -1.27% | 
66 | Fc1ccc(C2=CC(c3ccc(Br)o3)n3ncnc3N2)cc1 (stereo not given) |  | inconclusive: 89.1 µM [inhibitor, single point]
67 | O=C(C1CC1)N1CCN(c2ccc(O)cc2)CC1 | inactive: 9.64% | 
68 | CC1CCCN(S(=O)(=O)c2ccc(C(=O)NC(C)c3ccccc3)cc2)C1 (stereo not given) |  | inconclusive: 89.1 µM [inhibitor, partial curve, poor fit]
69 | CCN(CC)c1ccc2nc3c4ccccc4c(=O)cc-3oc2c1 |  | inconclusive: 1 µM [inhibitor, full curve, poor fit]
70 | CC(=O)O/N=C1\C(=O)N(Cc2ccc(C)cc2)c2ccccc21 |  | inconclusive: 89.1 µM [inhibitor, single point]

Full records from above.
`CCCCOC(=O)Sc1nc2ccccc2o1` in the list: Potency: inconclusive: 44.7 µM [inhibitor, partial curve]
`Cc1cccc(C)c1NC(=O)CCc1nnc2ccc(N3CCCC3)nn12` in the list: Potency: inconclusive: 14.1 µM [inhibitor, partial curve, poor fit]
`CC(=O)O/N=C1\C(=O)N(Cc2ccc(C)cc2)c2ccccc21` in the list: Potency: inconclusive: 89.1 µM [inhibitor, single point]
